According to publication PMC12431657, “Discovery and mechanistic insights of dibenzoylmethane as a broad spectrum inhibitor of coronavirus” (PLOS Pathogens, 2025):
Where a name gives a salt, the structure may show the parent alone. Read-outs that look alike come from different tables or passages of the source. Among all 3,300 compounds or so, about 60 (2%) showed an effect of 50% or more. Some of the results follow. Peptide text beside a SMILES is read from it.

Test system: HCoV-OC43
Set-up: species or system RD; HTS, protection from HCoV-OC43 induced cell death, luminescent cell viability (CellCounting-Lite 2.0), inhibition rate
Conditions: 24 h post infection, 1 h compound pre-incubation, 10 µM, inhibitor

| SMILES | OC43 Inhibition rate | OC43 Inhibition rate (OC43 Inhibition rate, 24 h) |
| --- | --- | --- |
| CCOc1ccc2ccc(=O)oc2c1 [7-Ethoxycoumarin] | 0% |  |
| COc1ccc([C@@H]2CC(=O)c3c(O)cc(O[C@@H]4O[C@H](CO[C@@H]5O[C@@H](C)[C@H](O)[C@@H](O)[C@H]5O)[C@@H](O)[C@H](O)[C@H]4O)cc3O2)cc1OC [Methyl-Hesperidin] | 0.1% |  |
| C[C@H](CCC(=O)NCCS(=O)(=O)O)[C@H]1CC[C@H]2[C@@H]3[C@@H](O)C[C@@H]4C[C@H](O)CC[C@]4(C)[C@H]3CC[C@]12C [Tauroursodeoxycholate] | 2% |  |
| Cc1cccc(CC(=O)O)c1 [m-Tolylacetic acid] | -0.7% |  |
| COc1c(O)cc2oc3cc(O)c(CC=C(C)C)c(O)c3c(=O)c2c1CC=C(C)C [alpha-Mangostin] | 16.6% |  |
| C=C1C(=O)[C@@]23[C@H](O)C[C@@H]4C(C)(C)CC[C@H](O)[C@@]4(CO)[C@@H]2CC[C@@H]1[C@H]3O [Kamebakaurin] | -2.9% |  |
| COc1ccc(CC(=O)O)cc1 [2-(4-Methoxyphenyl)acetic acid] | 0% |  |
| C=CCCCCCCCCC(=O)O [10-Undecenoic acid] | 2.6% |  |
| CCCCC/C=C\C/C=C\CCCCCCCC(=O)O[C@H]1CC[C@@]2(C)C(=CC[C@H]3[C@@H]4CC[C@H]([C@H](C)CCCC(C)C)[C@@]4(C)CC[C@@H]32)C1 [Cholesteryl linoleate] | 0.3% |  |
| NCC(=O)N[C@@H](Cc1ccc(O)cc1)C(=O)O [Glycyl-L-tyrosine] (H-Gly-Tyr-OH) | -0.2% |  |
| Cc1nc2n(c(=O)c1CCN1CCC(c3noc4cc(F)ccc34)CC1)CCCC2O (stereo not drawn) [Paliperidone] | 0% |  |
| C/C(=C\CC[C@@H](C)[C@H]1CC[C@@]2(C)C3=CC[C@H]4C(C)(C)[C@@H](O)CC[C@]4(C)C3=CC[C@]12C)CO [Ganoderol B] | -0.3% |  |
| COc1c(O)c2c(=O)cc(OC)c3c4c(OC)cc(=O)c5c(O)c(OC)c6c(c(c1CC(C)=C6C(C)=O)c23)c54 [Hypocrellin B] | -0.3% |  |
| CC(C)=CCC/C(C)=C/CC/C(C)=C/CC/C(C)=C/CO [Geranylgeraniol] | 44.1% |  |
| O=C(O)CCCCC1CCSS1 (stereo not drawn) [α-Lipoic Acid] | 0.7% |  |
| COc1cc(/C=C/c2cc(O)cc(O)c2)ccc1O [Isorhapontigenin] | 0.2% |  |
| C[C@H]1[C@H](C)CC[C@]2(C(=O)O)CC[C@]3(C)C(=CC[C@@H]4[C@@]5(C)CC[C@@H](O)C(C)(C)[C@@H]5CC[C@]43C)[C@H]12 [3-Epiursolic Acid] | -1.3% |  |
| O=C(/C=C/C=C/c1ccc2c(c1)OCO2)N1CCCCC1 [Piperine] | 14.7% |  |
| O=c1c2ccccc2nc2n1CCc1c-2[nH]c2ccccc12 [Rutaecarpine] | 2.9% |  |
| C[C@@H]1O[C@@H](OC[C@H]2O[C@@H](Oc3c(-c4ccc(O)cc4)oc4cc(O)cc(O)c4c3=O)[C@H](O)[C@@H](O)[C@@H]2O)[C@H](O)[C@H](O)[C@H]1O [Nicotiflorin] | -0.2% |  |

| SMILES | OC43 Inhibition rate | OC43 Inhibition rate (OC43 Inhibition rate, 24 h) |
| --- | --- | --- |
| O=C(O)c1ccco1 [2-Furoic acid] | 3.6% |  |
| CC(C)[C@H](N)C(=O)O [L-Valine] | -0.6% |  |
| CC(=O)O[C@@H]1C[C@@H]2CC[C@@]1(C)C2(C)C [(-)-Bornyl acetate] | 0.5% |  |
| OC[C@H]1O[C@@](CO)(O[C@H]2O[C@H](CO)[C@@H](O)[C@H](O)[C@H]2O)[C@@H](O[C@H]2O[C@H](CO)[C@@H](O)[C@H](O)[C@H]2O)[C@@H]1O [D-(+)-Melezitose] | 0.9% |  |
| C[S+]([O-])CC[C@H](N)C(=O)O (stereo partly drawn) [Methionine sulfoxide] |  | 2.3% |
| COc1ccc([C@H]2O[C@@H](c3ccc(OC)c(OC)c3)[C@H](C)[C@H]2C)cc1OC [Veraguensin] | 19.7% |  |
| CC1(C)[C@H](C(=O)O)CC[C@]1(C)C(=O)O [(-)-Camphoric acid] | -0.3% |  |
| COc1ccc(-c2cc(=O)c3c(O)c(OC)c(O)cc3o2)cc1 [Pectolinarigenin] | 13.3% |  |
| COc1ccc2c(c1)OC[C@@H](c1cc(O)c(OC)c(OC)c1O)C2 [Colutehydroquinone] | 2.6% |  |
| CC1OCCC1=O (stereo not drawn) [2-Methyltetrahydrofuran-3-one] | 0.2% |  |
| C[C@H](CCC(=O)O)[C@H]1CC[C@H]2[C@@H]3[C@H](O)C[C@@H]4C[C@H](O)CC[C@]4(C)[C@H]3C[C@H](O)[C@]12C [Cholic acid (sodium)] |  | -0.3% |
| O=C(O)C[C@H](C(=O)O)[C@H]1c2c(cc(O)c(O)c2O)C(=O)O[C@@H]1C(=O)O [Chebulic acid] | -0.4% |  |
| C[C@H](O)[C@H](O)C1=Nc2c(nc(N)[nH]c2=O)NC1 [7,8-Dihydro-L-biopterin] | -1.3% |  |
| CC(=O)O[C@H]1CC[C@]2(C)[C@H]3CC=C4[C@@H]5[C@@H](C)[C@H](C)CC[C@]5(C(=O)O)CC[C@@]4(C)[C@]3(C)CC[C@H]2C1(C)C [Ursolic acid acetate] | 19.4% |  |
| COc1cc2c(cc1OC)[C@H]1Cc3ccc(OC)c(OC)c3CN1CC2 [D-Tetrahydropalmatine] | 2% |  |
| COc1ccc(-c2cc(=O)c3c(OC)c(OC)c(OC)cc3o2)cc1OC [Sinensetin] | 5% |  |
| CC(C)=CCC/C(C)=C/Cc1c(O)c(CC=C(C)C)c2c(c1O)C(=O)C1=C[C@@H]3C[C@H]4C(C)(C)O[C@@](C/C=C(/C)C(=O)O)(C3=O)[C@@]14O2 [Gambogenic acid] | -2.2% |  |
| C[C@H](CCC(=O)O)[C@H]1CC[C@H]2[C@@H]3[C@H](O)C[C@@H]4C[C@H](O)CC[C@]4(C)[C@H]3C[C@H](O)[C@]12C [Cholic acid] |  | 1.6% |

Rewritten bar-delimited: entries from further up
SMILES | OC43 Inhibition rate | OC43 Inhibition rate (OC43 Inhibition rate, 24 h)
COc1ccc(-c2cc(=O)c3c(O)c(OC)c(O)cc3o2)cc1 [Pectolinarigenin] | 13.3% | 
C[C@H](O)[C@H](O)C1=Nc2c(nc(N)[nH]c2=O)NC1 [7,8-Dihydro-L-biopterin] | -1.3% | 
